{
  "sequences": {"note": "Amino acid sequences for entries named in this document (tags omitted).", "UniProt Q0JBA9, entry or part of it": "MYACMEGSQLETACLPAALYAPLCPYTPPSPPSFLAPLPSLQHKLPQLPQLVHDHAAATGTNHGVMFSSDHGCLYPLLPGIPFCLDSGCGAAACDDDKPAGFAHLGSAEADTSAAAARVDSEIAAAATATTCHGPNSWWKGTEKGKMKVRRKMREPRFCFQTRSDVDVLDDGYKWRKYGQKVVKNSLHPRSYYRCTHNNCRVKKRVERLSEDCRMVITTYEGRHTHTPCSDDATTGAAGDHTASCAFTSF"},
  "source": "paper PMC7819943",
  "about": "“Rice protein-binding microarrays: a tool to detect cis-acting elements near promoter regions in rice”",
  "note": "Some of the results follow.",
  "data": [
    {"molecular_target": "OsWRKY34 (Oryza sativa, UniProt Q0JBA9 1-250)", "assay": "protein-binding microarray (RPBM); PBS, 2% BSA, 51.3 ng/ul salmon testes DNA, 50 uM zinc acetate, 200 nM TF, 25 C, 1 h; high values mean tight binding", "details": "protein: recombinant; tags: N-terminal polyhistidine and DsRed monomer fusion (pET32a); label: CyDye5-dUTP incorporated in the synthesized complementary strand; 3' TTTTT single-stranded linker to array surface; dsDNA, one strand shown", "in_short": "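Ni–NTA purification followed expression in E. coli BL21-CodonPlus of transcription factors fused N-terminally to a polyhistidine tag and DsRed. At 200 nM in PBS with 2% BSA, salmon testes DNA and 50 µM zinc acetate, the protein was incubated for 1 h at 25 °C with a custom Agilent array that had been primer-extended with Cy5-dUTP and blocked with 2% BSA. After washing, the array was read on an Axon 4000B scanner. The binding signal is per-feature fluorescence intensity in arbitrary units.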", "values": [
      {"sequence": "TGCTTCCATCACCTCACTCTGTTGGGTAATGCTCATAAATCGGAGTCACCTAGTGCAG", "binding signal": "8290 fluorescence intensity (a.u.)"},
      {"sequence": "TGCTCGCTCTGGACGCGTCGCCGCGCCCGCTCGGCTTCTTCGGAGTCACCTAGTGCAG", "binding signal": "9130 fluorescence intensity (a.u.)"},
      {"sequence": "TTATCTATCCGTATTGGCTCCGTTTTCATCCCTAGTTTCGCGGAGTCACCTAGTGCAG", "binding signal": "10000 fluorescence intensity (a.u.)"},
      {"sequence": "CCTGTGTATTTGTTGGTCTATTTGGTTTCCTTGGATGGGACGGAGTCACCTAGTGCAG", "binding signal": "14500 fluorescence intensity (a.u.)"},
      {"sequence": "ACATATTTTTAATACTGGCTATATTCGGCTGTCATTATTTCGGAGTCACCTAGTGCAG", "binding signal": "8930 fluorescence intensity (a.u.)"},
      {"sequence": "CCGTTTAAACTTTGACCACCAATTACTTTTTTAAATAGTTCGGAGTCACCTAGTGCAG", "binding signal": "8350 fluorescence intensity (a.u.)"},
      {"sequence": "TCCCTCGATCCATAACCGACCGACCAATTACGCGCCGTACCGGAGTCACCTAGTGCAG", "binding signal": "9630 fluorescence intensity (a.u.)"},
      {"sequence": "AACCCTAAAATCTCTCTCTCTCTCTCGATCCCCTAACGCGCGGAGTCACCTAGTGCAG", "binding signal": "8640 fluorescence intensity (a.u.)"},
      {"sequence": "GGAAAAAGAACAATCTGCGACCAACCTCTTTTTTCTATCCCGGAGTCACCTAGTGCAG", "binding signal": "8980 fluorescence intensity (a.u.)"},
      {"sequence": "AACAAACACTATTACCGTGTATCCCAAGTTGCCTTTTCATCGGAGTCACCTAGTGCAG", "binding signal": "9310 fluorescence intensity (a.u.)"},
      {"sequence": "ATCGTGATCTCCGTACGTTAGGTTGGTTTCTTTGTTTTTCCGGAGTCACCTAGTGCAG", "binding signal": "11400 fluorescence intensity (a.u.)"},
      {"sequence": "CTGTGATGTTGCACACTGTCTCACTTCATTTGGCTCATGACGGAGTCACCTAGTGCAG", "binding signal": "10700 fluorescence intensity (a.u.)"},
      {"sequence": "AAATCAACAAGGGTCTAGTGTTTTTCTTCCGCCTCAAAATCGGAGTCACCTAGTGCAG", "binding signal": "8620 fluorescence intensity (a.u.)"},
      {"sequence": "ACTTGGCACCCTCTCCCGTCCCGCCGCGGCCGCGCGTTTCCGGAGTCACCTAGTGCAG", "binding signal": "9970 fluorescence intensity (a.u.)"},
      {"sequence": "ACCGATTTCTCTCTTTTTGCAACAAATCGGATCACGTCTTCGGAGTCACCTAGTGCAG", "binding signal": "12700 fluorescence intensity (a.u.)"},
      {"sequence": "GCATGGTAGCGCCCGCGCTTAATTCTTCTCACATGCATGTCGGAGTCACCTAGTGCAG", "binding signal": "8480 fluorescence intensity (a.u.)"},
      {"sequence": "ACATCACCTGCCGATCATTAAGCATTTACACCGTGAGTCTCGGAGTCACCTAGTGCAG", "binding signal": "8420 fluorescence intensity (a.u.)"},
      {"sequence": "AAGAATATTCTTTGAAGTGTTTTGTGTTGTACTTGCATTCCGGAGTCACCTAGTGCAG", "binding signal": "8990 fluorescence intensity (a.u.)"},
      {"sequence": "GTGTATTTATGGTTTTTTTTTCAACGTTTGACCATCCGTTCGGAGTCACCTAGTGCAG", "binding signal": "12300 fluorescence intensity (a.u.)"},
      {"sequence": "CTAATATTTTTTATTTTTTAATTCCGAATTTCAACTATTTCGGAGTCACCTAGTGCAG", "binding signal": "9020 fluorescence intensity (a.u.)"},
      {"sequence": "CGTTTCGTTCCTTCCCGTTCCCGAGGAAATATCCCCATTCCGGAGTCACCTAGTGCAG", "binding signal": "9070 fluorescence intensity (a.u.)"},
      {"sequence": "TTAGACCTCATTGCTATTTCTTTATTGATCCGCCACTGATCGGAGTCACCTAGTGCAG", "binding signal": "8340 fluorescence intensity (a.u.)"},
      {"sequence": "TTCTCTCGTTGACCTAAAAACTTCTCTTTCACCGAACATCCGGAGTCACCTAGTGCAG", "binding signal": "10600 fluorescence intensity (a.u.)"},
      {"sequence": "GACCTATGTGCTAATTATCACTAGTAGCTATCCTTTTGTTCGGAGTCACCTAGTGCAG", "binding signal": "8550 fluorescence intensity (a.u.)"},
      {"sequence": "CTTACTTGGTCACTCCCTTTTTGTTATCTGATTTAGACGTCGGAGTCACCTAGTGCAG", "binding signal": "8230 fluorescence intensity (a.u.)"},
      {"sequence": "CTTCGCCGTCGCCGCCTCCGCCGCCGCGGGCTCGCATCGCCGGAGTCACCTAGTGCAG", "binding signal": "8420 fluorescence intensity (a.u.)"},
      {"sequence": "CGACGTACCGTAGCCGATTTCTGTTGCTATTATCATGTTCCGGAGTCACCTAGTGCAG", "binding signal": "9450 fluorescence intensity (a.u.)"},
      {"sequence": "TCCGTGCGGTCCGCCCGTTCGTTATCCGAATCCACCCAAACGGAGTCACCTAGTGCAG", "binding signal": "8120 fluorescence intensity (a.u.)"},
      {"sequence": "TCTGCCTCACCCTACTTTTTTGTCATGTCCATAAACCACACGGAGTCACCTAGTGCAG", "binding signal": "10600 fluorescence intensity (a.u.)"},
      {"sequence": "ACTATTGAAAATGATTCACTGTACTCACTAATAGCATTTTCGGAGTCACCTAGTGCAG", "binding signal": "9520 fluorescence intensity (a.u.)"},
      {"sequence": "ATCGAATGGTTGGTTCGGTTTGGTTTTGATTGATCGATATCGGAGTCACCTAGTGCAG", "binding signal": "22300 fluorescence intensity (a.u.)"},
      {"sequence": "ATCACATCACATCACATACGGGGATCCTGGCGGGGTAGGACGGAGTCACCTAGTGCAG", "binding signal": "9610 fluorescence intensity (a.u.)"},
      {"sequence": "CCACGTCGCCCTTGTTTATTTCCCACCAAACAAAAAAACCCGGAGTCACCTAGTGCAG", "binding signal": "9030 fluorescence intensity (a.u.)"},
      {"sequence": "TTGTTTTTTCGTTCTTTTTTTTGGCATTGTTTCAGCTTCTCGGAGTCACCTAGTGCAG", "binding signal": "10800 fluorescence intensity (a.u.)"},
      {"sequence": "TGCCGACTGCCCACGAGTCAACTTCGTTTGCCGACTCCGACGGAGTCACCTAGTGCAG", "binding signal": "8500 fluorescence intensity (a.u.)"},
      {"sequence": "GTTTCTTGTGTTCATGGCCTCTTCTTGCCGCAGAGAGAGACGGAGTCACCTAGTGCAG", "binding signal": "8400 fluorescence intensity (a.u.)"},
      {"sequence": "CCGCCACCACCGCTGCTAAGCCGCCATCGCCGTTGTTTTTCGGAGTCACCTAGTGCAG", "binding signal": "12400 fluorescence intensity (a.u.)"},
      {"sequence": "ACTGGAGAAGCTATTAGCTATATATACCGCTGCAATGCTCCGGAGTCACCTAGTGCAG", "binding signal": "8530 fluorescence intensity (a.u.)"},
      {"sequence": "CTTCTTCGATCTCCGGCAATCGCTCCATCGATCGGCGCTTCGGAGTCACCTAGTGCAG", "binding signal": "8370 fluorescence intensity (a.u.)"},
      {"sequence": "GATATTTGTAACTGTTGTGTGTCTAGTTATCTGCATTTGACGGAGTCACCTAGTGCAG", "binding signal": "10700 fluorescence intensity (a.u.)"},
      {"sequence": "ATCCCCTCACTTCTGGCGCATTCCGCTCCCGCGAAAATCCCGGAGTCACCTAGTGCAG", "binding signal": "9510 fluorescence intensity (a.u.)"},
      {"sequence": "AATCGTATTACTGTATGCTCTCTTGGTTGATTGCACATTCCGGAGTCACCTAGTGCAG", "binding signal": "13300 fluorescence intensity (a.u.)"},
      {"sequence": "GCAGCATGTAGCTACCGTCCAGTATTCTTTGCTTCTTCCACGGAGTCACCTAGTGCAG", "binding signal": "11800 fluorescence intensity (a.u.)"},
      {"sequence": "CTCACCGTGCCGACCACCACCTCTCCCAACCTCGCCGTCGCGGAGTCACCTAGTGCAG", "binding signal": "9250 fluorescence intensity (a.u.)"},
      {"sequence": "CCACCTGCTCGCCGTCGACGCCGCCCTCGCCATCTTCAATCGGAGTCACCTAGTGCAG", "binding signal": "12800 fluorescence intensity (a.u.)"},
      {"sequence": "CTGCACATTCCAAGTTTCCAACTGATGTTCTTTGTGGTCACGGAGTCACCTAGTGCAG", "binding signal": "9380 fluorescence intensity (a.u.)"},
      {"sequence": "ATTCATTATCATCAGGAGTACCGCATACCTATTCTTAGAACGGAGTCACCTAGTGCAG", "binding signal": "8340 fluorescence intensity (a.u.)"},
      {"sequence": "GTACTTGGTCACTAACCTTATCTCCTGACAGAAACTCTCTCGGAGTCACCTAGTGCAG", "binding signal": "8160 fluorescence intensity (a.u.)"},
      {"sequence": "CTTTTTTATTACTTATTTTTTGACCGAATTGGTCCAGCTTCGGAGTCACCTAGTGCAG", "binding signal": "9870 fluorescence intensity (a.u.)"},
      {"sequence": "GGTTTAGGGGTAAACTACCAATCTAACTTCACTTTTTCAACGGAGTCACCTAGTGCAG", "binding signal": "8650 fluorescence intensity (a.u.)"},
      {"sequence": "ATAGTAGTTATCATGCACCATTTATCATTTGTTTTTTCTTCGGAGTCACCTAGTGCAG", "binding signal": "12900 fluorescence intensity (a.u.)"},
      {"sequence": "GACGTGTTGGTGTGGAGCTAATCAATCTAGCCAAATACTTCGGAGTCACCTAGTGCAG", "binding signal": "8080 fluorescence intensity (a.u.)"},
      {"sequence": "AAAAATAAGTTTTGTTATGATTTAGGCTGTGTTTAGTTCCCGGAGTCACCTAGTGCAG", "binding signal": "9350 fluorescence intensity (a.u.)"},
      {"sequence": "ACAGAGAGAGAGAGAAAATAGCTTTAGAGAGAGAAAAATACGGAGTCACCTAGTGCAG", "binding signal": "8050 fluorescence intensity (a.u.)"}
    ]}
  ]
}
